From patent US20210292760

By UniProt entry, the sequences of proteins in these tests, tags left out. Where a name states a change or a piece, a line headed by the entry shows the natural chain unless it says otherwise.
UniProt Q04609: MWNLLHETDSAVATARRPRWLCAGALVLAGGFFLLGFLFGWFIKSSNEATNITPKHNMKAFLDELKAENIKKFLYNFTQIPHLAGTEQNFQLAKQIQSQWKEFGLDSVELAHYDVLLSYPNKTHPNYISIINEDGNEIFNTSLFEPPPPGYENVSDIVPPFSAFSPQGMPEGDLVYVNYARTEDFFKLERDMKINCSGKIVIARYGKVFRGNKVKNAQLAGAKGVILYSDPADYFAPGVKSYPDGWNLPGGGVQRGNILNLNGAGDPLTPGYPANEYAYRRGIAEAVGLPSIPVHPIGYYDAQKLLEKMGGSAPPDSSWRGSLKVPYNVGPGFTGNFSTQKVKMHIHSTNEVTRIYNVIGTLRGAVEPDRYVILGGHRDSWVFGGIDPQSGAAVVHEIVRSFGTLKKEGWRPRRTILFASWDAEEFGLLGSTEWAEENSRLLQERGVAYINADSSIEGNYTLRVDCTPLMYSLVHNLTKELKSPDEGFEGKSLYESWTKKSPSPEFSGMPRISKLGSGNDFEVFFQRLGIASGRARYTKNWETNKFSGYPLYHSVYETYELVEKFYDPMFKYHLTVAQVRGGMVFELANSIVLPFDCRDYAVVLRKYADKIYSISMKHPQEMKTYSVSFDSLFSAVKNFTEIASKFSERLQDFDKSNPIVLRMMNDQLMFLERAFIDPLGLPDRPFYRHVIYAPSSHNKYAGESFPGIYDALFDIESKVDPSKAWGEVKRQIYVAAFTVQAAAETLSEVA

How the values were obtained:
[1] = molecular target: PSMA (prostate-specific membrane antigen, FOLH1) (Homo sapiens) (UniProt Q04609); test: flow cytometry; settings: LNCaP, protein on the cell surface, protein details: endogenous on LNCaP cells (ATCC CRL-1740), label: 5'-Biotin-TEG
[2] = tested on: CD3 (TCR/CD3 complex) (Homo sapiens); test: flow cytometry; settings: protein on the cell surface, protein details: endogenous on Jurkat cells (ATCC TIB-152)
[3] = 2'-F RNA part, triazole click linkage A10 3'-end to 5'-end of anti-CD3 aptamer, signal superior to A10 monomer, reduced PC-3 binding, variant of A10
[4] = 2'-F RNA part, triazole click linkage A10 3'-end to 5'-end of anti-CD3 aptamer, Jurkat, dose-dependent, signal lower than anti-CD3 monomer, Ramos binding strongly reduced, label: 5'-Biotin-TEG, variant of A10
[5] = 2'-F RNA, triazole click linkage A10 3'-end to 5'-end of anti-CD3 aptamer, signal superior to A10 monomer, reduced PC-3 binding, DPBS 5% FBS, 37C, 40-50% LNCaP killing with PBMC at 100 nM for the RNA/RNA bispecifics (p77), variant of A10
[6] = 2'-F RNA, triazole click linkage A10 3'-end to 5'-end of anti-CD3 aptamer, Jurkat, dose-dependent, signal lower than anti-CD3 monomer, Ramos binding strongly reduced, label: 5'-Biotin-TEG, variant of A10
[7] = 5'-alkyne (for dimerization), Jurkat, residual binding to CD3-negative Ramos only at highest concentration, 37C, label: biotin, single-stranded DNA
[8] = 2'-F RNA (2'-deoxy-2'-fluoro-thymidine-modified as stated), 5'-alkyne (for dimerization), Jurkat, residual binding to CD3-negative Ramos only at highest concentration, 37C, label: biotin

“GGGAGGACGAUGCGGAUCAGCCAUGUUUACGUCACUCCU [A10]”: binds ([1]; 2'-F RNA, 3'-azide, dose-dependent 30-300 nM, no saturation, residual binding to PSMA-negative PC-3 only at highest concentration, 37C, 5% FBS); no binding ([2]; 2'-F RNA, 3'-azide, A10 did not bind Jurkat or Ramos cells, label: 5'-Biotin-TEG).
“GGGAGGACGAUGCGGAUCAGCCAUGUUUACGUCACUCCUGGGTTTGGCATCGGGCCTGGC [A10xCELTIC_core bispecific]”: binds [1, 3]; binds [2, 4].
“GGGAGGACGAUGCGGAUCAGCCAUGUUUACGUCACUCCUTACCGCGGGGATTGGCTCCGGGCCTGGCGTCGTAATCTGA [A10xCELTIC_19s bispecific]”: binds [1, 3]; binds [2, 4].
“GGGAGGACGAUGCGGAUCAGCCAUGUUUACGUCACUCCUTTTCCGGGTGGGGGTTTGGCACCGGGCCTGGCGCAGGGATTCG [A10xCELTIC_1s bispecific]”: binds [1, 3]; binds [2, 4].
“GGGAGGACGAUGCGGAUCAGCCAUGUUUACGUCACUCCUUAUAGACUUUAAUGUCUCAUUUUCGCAGCGAUUCUUGUUUAUUUAACAUA [A10xARACD3-3700006 bispecific]”: binds [1, 5]; binds [2, 6].
“GGGAGGACGAUGCGGAUCAGCCAUGUUUACGUCACUCCUUCUAAGCAAUAUUGUUUGCUUUUGCAGCGAUUCUGUUUCGAUAUAUUA [A10xARACD3-0010209 bispecific]”: binds [1, 5]; binds [2, 6].
GGGTTTGGCATCGGGCCTGGC [CELTIC_core]: binds [2, 7].
“TACCGCGGGGATTGGCTCCGGGCCTGGCGTCGTAATCTGA [CELTIC_19s]”: binds [2, 7].
“TTTCCGGGTGGGGGTTTGGCACCGGGCCTGGCGCAGGGATTCG [CELTIC_1s]”: binds [2, 7].
“UAUAGACUUUAAUGUCUCAUUUUCGCAGCGAUUCUUGUUUAUUUAACAUA [ARACD3-3700006]”: binds [2, 8].
“UCUAAGCAAUAUUGUUUGCUUUUGCAGCGAUUCUGUUUCGAUAUAUUA [ARACD3-0010209]”: binds [2, 8].

Where cells or extracts were used, other partners may take part. For some assays here: No signal at the amounts used counts as a negative. The exact form of at least one protein or probe is not confirmed.
